# PubChem BioAssay AID1259254 – NCATS – 2017
# Assay: 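Gene knock-downs that lead to re-replication, shown by excess G2 DNA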 (primary screen)
# Cells: human HCT116 colorectal cancer cells
# Reagent: single siRNA against human genes
# Timing: 3 days
# Read-out: 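Nuclei stained with Hoechst and imaged; cell-cycle phase assigned by DNA content; G2 share scaled per plate, non-targeting siRNA 0%, GMNN siRNA 100%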
# Direction: G2 robust z-score and G2 cells, % of GMNN control: higher = more G2 cells, more excess DNA replication; raw share of cells in G2: higher = larger share of cells with G2 DNA content
# Hit rule: 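An siRNA counts as active if its G2 robust z-score lies at least 5 MADs above the screen median; here such calls match roughly 38% of GMNN control or more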
# This is one part, drawn at random, of about 59,000 reagents tested. Of all reagents, about 1,550 (2.6%) are marked active. 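G2 share is only a proxy for re-replication; each gene was hit by three separate siRNAs, and active genes were retested.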 Raw values are not corrected between plates. Reagents against one gene are numbered here. The record does not give: the amount of reagent.
target,reagent no.,G2 robust z-score,"G2 cells, % of GMNN control",raw share of cells in G2 (%),Call
PKD2,1,3.28,26,14.8,inactive
PKD2,2,2.41,19.9,11.5,inactive
PKD2,3,-0.341,0.566,4.6,inactive
KRTDAP,1,-0.578,-1.1,3.4,inactive
KRTDAP,2,-0.941,-3.65,1.82,inactive
KRTDAP,3,-0.243,1.26,5.17,inactive
TADA1,1,-0.735,-2.2,3.21,inactive
TADA1,2,-0.881,-3.23,2.37,inactive
TADA1,3,0.106,3.71,2.9,inactive
LINC00602,1,-0.399,0.16,3.68,inactive
LINC00602,2,1.62,14.3,8.85,inactive
LINC00602,3,-0.808,-2.72,2.19,inactive
CFAP418,1,-0.391,0.215,3.68,inactive
CFAP418,2,-1.23,-5.72,1.04,inactive
CFAP418,3,-0.116,2.15,3.44,inactive
IL17REL,1,-0.623,-1.42,3.3,inactive
IL17REL,2,1.11,10.8,7.81,inactive
IL17REL,3,-0.881,-3.23,3.45,inactive

The list goes on; the last 5 above are carried over.
target,reagent no.,G2 robust z-score,"G2 cells, % of GMNN control",raw share of cells in G2 (%),Call
CFAP418,2,-1.23,-5.72,1.04,inactive
CFAP418,3,-0.116,2.15,3.44,inactive
IL17REL,1,-0.623,-1.42,3.3,inactive
IL17REL,2,1.11,10.8,7.81,inactive
IL17REL,3,-0.881,-3.23,3.45,inactive
CAPN3,1,-1.26,-5.87,3.51,inactive
CAPN3,2,-1.88,-10.2,1.29,inactive
CAPN3,3,-0.841,-2.95,2.81,inactive
LPAR6,1,-0.477,-0.389,5.7,inactive
LPAR6,2,-0.135,2.01,5.22,inactive
LPAR6,3,-0.262,1.13,3.61,inactive
CHP2,1,1.67,14.7,9.58,inactive
CHP2,2,3.78,29.6,13.2,inactive
CHP2,3,0.0319,3.19,4.46,inactive
RUVBL1,1,2.68,21.8,12.5,inactive
RUVBL1,2,-0.205,1.53,5.23,inactive
RUVBL1,3,0.565,6.94,7.7,inactive
MESP2,1,-0.544,-0.862,2.77,inactive
MESP2,2,0.385,5.67,5.73,inactive
MESP2,3,-0.925,-3.54,1.82,inactive
WDR27,1,1.37,12.6,8.14,inactive
WDR27,2,7.17,53.4,21.4,active
WDR27,3,0.583,7.07,5.45,inactive
C19orf84,1,1.61,14.3,8.04,inactive
C19orf84,2,-1.28,-6.02,1.81,inactive
C19orf84,3,-0.195,1.59,3.41,inactive
BCL10-AS1,1,1.13,10.9,7.27,inactive
BCL10-AS1,2,0.492,6.43,5.08,inactive
BCL10-AS1,3,-0.249,1.22,4.24,inactive
PARN,1,1.79,15.5,11.1,inactive
PARN,2,0.0666,3.44,4.37,inactive
PARN,3,-0.658,-1.66,4.58,inactive
LINC01630,1,-0.00637,2.92,4.24,inactive
LINC01630,2,-1.17,-5.27,1.91,inactive
LINC01630,3,-0.41,0.0819,3.34,inactive
